Our source for the binding values is article PMC8350375.

The chains behind the UniProt entries cited, without tags or fusion partners.
UniProt Q5M7T6: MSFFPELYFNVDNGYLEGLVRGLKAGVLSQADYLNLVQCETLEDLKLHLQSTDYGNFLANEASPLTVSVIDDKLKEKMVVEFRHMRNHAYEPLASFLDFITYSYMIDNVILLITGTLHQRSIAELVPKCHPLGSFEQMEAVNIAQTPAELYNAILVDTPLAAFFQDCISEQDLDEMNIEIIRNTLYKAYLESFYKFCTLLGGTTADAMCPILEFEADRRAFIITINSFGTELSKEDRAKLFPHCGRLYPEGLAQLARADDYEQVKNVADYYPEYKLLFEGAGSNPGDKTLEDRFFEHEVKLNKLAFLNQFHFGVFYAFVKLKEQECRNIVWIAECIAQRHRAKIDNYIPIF
UniProt P62814: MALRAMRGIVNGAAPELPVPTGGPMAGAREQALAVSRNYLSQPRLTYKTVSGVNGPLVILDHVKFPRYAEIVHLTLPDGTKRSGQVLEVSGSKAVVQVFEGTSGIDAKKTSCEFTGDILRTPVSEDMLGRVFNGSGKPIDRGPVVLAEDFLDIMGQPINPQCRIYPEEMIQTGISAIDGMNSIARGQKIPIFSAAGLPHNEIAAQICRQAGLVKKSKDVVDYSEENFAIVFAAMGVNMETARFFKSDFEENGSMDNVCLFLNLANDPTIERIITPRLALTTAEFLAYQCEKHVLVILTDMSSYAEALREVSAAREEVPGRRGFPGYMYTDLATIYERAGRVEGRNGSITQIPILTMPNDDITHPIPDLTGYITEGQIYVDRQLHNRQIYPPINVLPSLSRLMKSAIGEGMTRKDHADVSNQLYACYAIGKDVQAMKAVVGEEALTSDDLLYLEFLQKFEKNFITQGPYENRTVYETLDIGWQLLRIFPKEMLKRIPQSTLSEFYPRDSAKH
UniProt P62815: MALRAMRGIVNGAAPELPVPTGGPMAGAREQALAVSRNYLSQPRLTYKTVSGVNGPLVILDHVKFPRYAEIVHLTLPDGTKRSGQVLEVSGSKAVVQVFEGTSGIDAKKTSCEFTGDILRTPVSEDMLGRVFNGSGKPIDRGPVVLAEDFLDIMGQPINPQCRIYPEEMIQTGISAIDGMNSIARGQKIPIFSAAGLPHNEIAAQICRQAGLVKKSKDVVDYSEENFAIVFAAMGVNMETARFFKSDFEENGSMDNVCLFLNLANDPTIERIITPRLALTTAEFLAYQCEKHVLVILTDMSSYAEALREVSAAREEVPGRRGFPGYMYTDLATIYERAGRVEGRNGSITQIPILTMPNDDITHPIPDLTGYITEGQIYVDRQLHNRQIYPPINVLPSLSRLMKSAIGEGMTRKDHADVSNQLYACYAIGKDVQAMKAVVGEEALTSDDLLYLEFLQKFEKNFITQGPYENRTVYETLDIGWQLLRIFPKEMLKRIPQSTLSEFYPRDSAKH
UniProt P15920: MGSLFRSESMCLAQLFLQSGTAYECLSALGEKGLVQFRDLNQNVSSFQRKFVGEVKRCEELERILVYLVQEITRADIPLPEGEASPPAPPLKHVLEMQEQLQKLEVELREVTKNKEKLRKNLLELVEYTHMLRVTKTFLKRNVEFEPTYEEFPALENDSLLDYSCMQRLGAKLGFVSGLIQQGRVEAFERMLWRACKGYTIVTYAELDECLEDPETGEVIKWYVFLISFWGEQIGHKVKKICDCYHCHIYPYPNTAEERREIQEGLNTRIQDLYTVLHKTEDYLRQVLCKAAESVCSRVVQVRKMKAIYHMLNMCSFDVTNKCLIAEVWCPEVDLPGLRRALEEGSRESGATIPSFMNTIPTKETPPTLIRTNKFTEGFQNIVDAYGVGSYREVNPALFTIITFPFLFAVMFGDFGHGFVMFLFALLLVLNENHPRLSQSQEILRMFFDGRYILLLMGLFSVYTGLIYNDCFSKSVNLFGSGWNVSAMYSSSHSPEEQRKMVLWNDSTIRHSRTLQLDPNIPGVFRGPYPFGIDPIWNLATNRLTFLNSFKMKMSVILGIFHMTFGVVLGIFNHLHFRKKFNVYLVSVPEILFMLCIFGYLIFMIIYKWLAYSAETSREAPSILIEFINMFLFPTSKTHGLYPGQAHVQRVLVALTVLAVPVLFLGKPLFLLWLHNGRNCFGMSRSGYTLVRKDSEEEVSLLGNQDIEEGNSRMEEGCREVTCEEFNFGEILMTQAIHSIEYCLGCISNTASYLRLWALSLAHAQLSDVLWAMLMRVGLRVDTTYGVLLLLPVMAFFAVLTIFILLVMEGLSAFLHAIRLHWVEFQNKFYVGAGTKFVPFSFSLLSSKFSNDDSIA

Results are given in words; binding and its absence hold for the method and conditions named. Binding seen in cells or lysates may run through a third protein. Some binding calls cover weakened binding; strength is not graded here.

Assay [1] has as its target v-ATPase d1 subunit (V0 subcomplex), rat heart (rat (endogenous in heart)) (UniProt Q5M7T6). Put plainly: co-IP; endogenous proteins in rat heart lysates; IP against V1-B2, V0-d1 or mTOR, western blot for mTOR, V0-a2, V1-B2, V0-d1; rats on LFD, HFD or HFD/H-KLR (HFD decreased, H-KLR restored the co-IP). Background: In western blotting, separated proteins are transferred to a membrane and probed.

The target in assay [2] is v-ATPase B2 subunit (subunit of the cytoplasmic V1 subcomplex), HL-1 cells (mouse (endogenous in HL-1)) (UniProt P62814). Put plainly: co-IP; endogenous proteins in HL-1 cell lysates; IP with antibodies against V0-d1, V1-B2 or mTORC1, western blot for mTORC1, V0-a2, V0-d1, V1-B2; cells cultured 24 h in Ctrl, HP, HP/4*KLR or HP/4*KLR/Rap medium (HP decreased, 4*KLR preserved the co-IP).

As to “v-ATPase B2 subunit (V1 subcomplex), rat heart (from UniProt P62815 1-511)”, the binding entry in assay [1] is “binds”.

As for “v-ATPase a2 subunit (subunit of the membrane-bound V0 subcomplex), HL-1 cells (from UniProt P15920 1-856)”, the binding result in assay [2] is recorded as “binds”.
